Consider one compound from patent publication US12065692B2, “Optical super-multiplexing by polyynes” (The Trustees of Columbia University in the City of New York, priority 2017, dated 2024).

The data set in a line: SRS microscopy detection sensitivity.

Regarding `OCc1ccc(C#CC#CC#CC#Cc2ccccc2)cc1` [Carbow 4-yne], the “sensitivity relative to previous SRS detection of a single alkyne tag” value is around 500 times. In addition, the SRS detection sensitivity (signal-to-noise ratio of 1, 1-ms time constant) was determined as 630 nM.
